Source: paper PMC11955112
Results are given in words; binding and its absence hold for the method and conditions named. In cells and extracts the contact can be indirect. Binding can be weak; no strength is given.

Target: Flag-tagged USP7 truncation, TRAF domain
Experiment: co-IP; KYSE150 cells transfected with Flag-tagged USP7 truncations (TRAF, CAT, TUD); immunoprecipitation, PD-L1 or ANXA1 detected by western blot

B1: annexin A1 (ANXA1) (protein, UniProt P04083 1-346)
chain: MAMVSEFLKQAWFIENEEQEYVQTVKSSKGGPGSAVSPYPTFNPSSDVAALHKAIMVKGVDEATIIDILTKRNNAQRQQIKAAYLQETGKPLDETLKKALTGHLEEVVLALLKTPAQFDADELRAAMKGLGTDEDTLIEILASRTNKEIRDINRVYREELKRDLAKDITSDTSGDFRNALLSLAKGDRSEDFGVNEDLADSDARALYEAGERRKGTDVNVFNTILTTRSYPQLRRVFQKYTKYSKHDMNKVLDLELKGDIEKCLTAIVKCATSKPAFFAEKLHQAMKGVGTRHKALIRIMVSRSEIDMNDIKAFYQKMYGISLCQAILDETKGDYEKILVALCGGN
In the case of B1, the binding is reported as “binds”.
